# Assay results from article PMC8085155.
# Sequences of proteins named here, by UniProt entry; tags and fusion partners are left off.
# UniProt P02062: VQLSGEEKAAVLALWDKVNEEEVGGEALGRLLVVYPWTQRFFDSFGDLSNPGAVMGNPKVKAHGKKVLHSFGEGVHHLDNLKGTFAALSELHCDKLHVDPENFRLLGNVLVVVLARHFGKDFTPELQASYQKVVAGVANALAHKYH
# UniProt P01958: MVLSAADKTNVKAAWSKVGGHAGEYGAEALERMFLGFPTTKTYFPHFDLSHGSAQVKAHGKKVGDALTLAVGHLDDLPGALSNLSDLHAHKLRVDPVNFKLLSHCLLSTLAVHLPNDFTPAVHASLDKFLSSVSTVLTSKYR
# No constants are given. Whether binding was seen depends on the method and setting. In cells and extracts the contact can be indirect. These calls come from enrichment with a bait or labelling near it, and not all partners need be listed. No binding means not detected with the bait.
# B1: Anion-exchange protein (protein, UniProt Q2Z1P9 1-934)
# chain: MDDSQENPEEIEVIVEEDYEGPGIITSPPEAIMEEDYEGPGVSMSQPEEPVAHPTERTAADHHTITHPGTGEVYVELQELVMDGKNRELQWMEAARWVRLEENLGEDGAWGRPHLSYLNFWSLLDLQRAFAKGSVLLDLSETSLAGVAEKLLDRFIYDGLIRPQYREDLLWVLLLKHSHARDLKELDGVKPTVLTPSGGTLQPLLPEHPSLETQLFCAQGEGDTEESSPSGILEKISPDSEAALVLVGRISFLEKPVLGFVRLREAVELEATVEPSVPVRFLLVLLGPEAPHTDYTQLGRAAATLMSERVFLNEANTAQSKEELVRSLEGFLDCSLVLPPLDAPSKQALLSLVPVQRELLRRRYLPSPAKPDPSFYKSLDLGRGPGVPSGPEDPLQRTGYLFGGLVHDIKRRYPHYLSDITDALSPSVLAVVFFIYFAALSPAITFGGLLGEKTYNQIGVSELLLSTALQGIIFCLLGAQPLLVIGFSGPLLVFEEAFFSFCDRQGLEYIVGRVWIGFWLILLVVLVVAFEGSVLVRFISRYTQEIFSFLISLIFIYETFSKLVKIFQEHPLQRNYDQNVITEPKPQAPMPNTALLSLVLMAGTFSIAMMLRKFKNSTYLPGKLRRIIGDFGIPISALIMIMVDFLIQDTYTQKLSVPEGFSVSNTSFRGWLIHPLGLYTRFPTWMMFASVLPAMLVFILIFLESQITTLIISKPERRMVKGSGFHLDLLLIMGMGGLAPLFGMPWLSATTVRTITHANALTDVAKASTPGAEAQIQVREQRISGLLVALLLGLSILMGPVLRRIPLAVLFGIFLYMGVTSLSGIQFFDRILLLFKPQQYHPDVPYVTRVKTWRMHLFTITQIICVVVLWVVKTFPDSSLALPFVLILTVPLRHFLLPMIFRNLELQCLDADDAKAIFDEEEGQDEYDEATMAV
# Columns and labels:
# [1] = molecular target: T1, Theileria equi claudin-like apicomplexan microneme protein (CLAMP) (Theileria equi (Florida strain)) (UniProt L0B1Y1); test: cross-linking + affinity purification with mass spectrometry; T. equi-infected equine erythrocytes (~11% PPE) in 1X PBS cross-linked with 2 mM DSP on ice for 2 h, quenched with 20 mM Tris; co-immunoprecipitation (Pierce Co-Immunoprecipitation kit, AminoLink resin; agarose resin as negative control), SDS-PAGE bands cut out, nano LC-MS/MS
# T1 sequence: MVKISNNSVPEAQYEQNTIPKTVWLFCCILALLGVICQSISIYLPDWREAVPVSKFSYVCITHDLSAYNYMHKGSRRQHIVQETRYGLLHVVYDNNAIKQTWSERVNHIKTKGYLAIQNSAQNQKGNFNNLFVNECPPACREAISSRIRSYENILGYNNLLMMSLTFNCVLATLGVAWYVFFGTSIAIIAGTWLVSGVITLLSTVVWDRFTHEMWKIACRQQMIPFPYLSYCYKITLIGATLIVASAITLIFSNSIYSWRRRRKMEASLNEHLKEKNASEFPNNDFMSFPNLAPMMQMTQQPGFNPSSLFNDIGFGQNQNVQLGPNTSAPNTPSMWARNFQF
# [2] = molecular target: T1, Theileria equi claudin-like apicomplexan microneme protein (CLAMP) (Theileria equi (Florida strain)); test: cross-linking + affinity purification with mass spectrometry; uninfected equine erythrocytes incubated with 5 x 10^8 T. equi merozoites for 1 h at 4 °C in 1X PBS, cross-linked with 2 mM DTSSP on ice for 2 h, quenched with 20 mM Tris; co-immunoprecipitation (Pierce Co-Immunoprecipitation kit, AminoLink resin; agarose resin as negative control), SDS-PAGE bands cut out, nano LC-MS/MS
molecule,measurement,setting,value
equine β-hemoglobin subunit (from UniProt P02062 1-146),binding,[1],no binding
same,binding,[2],no binding
Spectrin beta chain,binding,[1],binds
same,binding,[2],binds
"Spectrin alpha, erythrocytic 1",binding,[1],binds
same,binding,[2],binds
equine α-hemoglobin subunit (from UniProt P01958 1-142),binding,[1],no binding
same,binding,[2],no binding
Tropomyosin 3,binding,[1],binds
B1,binding,[1],binds
